Record: PubChem BioAssay AID504804 (Drosophila RNAi Screening Center, 2011)
Screen: 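Fly genes whose loss lessens doxorubicin-driven cell death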 (primary screen). Cells: Drosophila Kc cells. Reagent: long dsRNA against Drosophila genes, 0.5 µg dsRNA per well. Time to read-out: 96 h (48 h knock-down, then 48 h drug). Challenge: doxorubicin 5 µg/ml for 48 h, added 48 h after dsRNA. Read-out: 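Luminescent ATP counts per replicate, not normalised, reflecting viable cells after 48 h dsRNA knock-down followed by 48 h of 5 µg/ml doxorubicin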. Reading the numbers: raw ATP luminescence: higher = more viable cells, protection from doxorubicin. Call rule: 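z-score of 2 or more over plate mean in both duplicates, retained only when retests and separate dsRNAs confirm the protection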.
The screen tested about 19,000 reagents; shown is a random part of those with a known target gene and a result. Over the whole deposit, 47 (0.25%) got an active call. 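Signals are raw, not normalised; exact z-scores behind calls not deposited; actives needed confirmation, so some wells reaching 2 SD are inactive.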

| target | DRSC id | raw ATP luminescence, replicate 1 | raw ATP luminescence, replicate 2 | Call |
| --- | --- | --- | --- | --- |
| CG15599 | DRSC19668 | 3.31e5 | 3.26e5 | inactive |
| CG32075 | DRSC10622 | 75013 | 78850 | inactive |
| kel (kelch) | DRSC03554 | 80063 | 68220 | inactive |
| Pkc53E (Protein C kinase 53E) | DRSC05636 | 1.96e5 | 1.50e5 | inactive |
| Pkc53E (Protein C kinase 53E) | DRSC07510 | 55940 | 59813 | inactive |
| CG14625 | DRSC18633 | 56100 | 45020 | inactive |
| Ance-4 | DRSC07104 | 54947 | 75713 | inactive |
| Sod1 (Superoxide dismutase 1) | DRSC11286 | 80677 | 75993 | inactive |
| Ect3 (Ectoderm-expressed 3) | DRSC15462 | 44473 | 48457 | inactive |
| ms(2)35Ci (male sterile (2) 35Ci) | DRSC01460 | 2.22e5 | 2.34e5 | inactive |
| CCAP (Crustacean cardioactive peptide) | DRSC15674 | 53890 | 67890 | inactive |
| twr (twisted bristles roughened eye) | DRSC12491 | 75240 | 64837 | inactive |
| Tina-1 (Troponin C-akin-1) | DRSC04317 | 80790 | 82480 | inactive |
| CG14333 (retired record) | DRSC14812 | 66810 | 86790 | inactive |
| CG14333 (retired record) | DRSC15769 | 57430 | 50280 | inactive |
| CG13634 | DRSC14635 | 57670 | 61100 | inactive |
| Dpy-30L1 (Dpy-30-like 1) | DRSC02959 | 31753 | 44703 | inactive |
| wts (warts) | DRSC17096 | 11190 | 10730 | inactive |
| CG4839 | DRSC02783 | 93363 | 61253 | inactive |
| CG4839 | DRSC02784 | 42693 | 63510 | inactive |
| CG2663 | DRSC12314 | 51813 | 53587 | inactive |

Single entries from the list.
Under “Call”, Ect3 (Ectoderm-expressed 3) [DRSC15462] reads inactive
Result for Pkc53E (Protein C kinase 53E) [DRSC05636] in “raw ATP luminescence, replicate 2”: 1.50e5
CCAP (Crustacean cardioactive peptide) [DRSC15674], raw ATP luminescence, replicate 1 → 53890
twr (twisted bristles roughened eye) [DRSC12491], raw ATP luminescence, replicate 2 → 64837

The listing continues:
| target | DRSC id | raw ATP luminescence, replicate 1 | raw ATP luminescence, replicate 2 | Call |
| --- | --- | --- | --- | --- |
| sev (sevenless) | DRSC20372 | 2.69e5 | 3.06e5 | inactive |
| DCTN5-p25 (Dynactin 5, p25 subunit) | DRSC03525 | 67800 | 64920 | inactive |
| Pi3K21B | DRSC00771 | 92167 | 83977 | inactive |
| na (narrow abdomen) | DRSC19639 | 2.83e5 | 2.23e5 | inactive |
| CG9686 | DRSC18439 | 3.77e5 | 3.56e5 | inactive |
| bin3 (bicoid-interacting protein 3) | DRSC04919 | 31790 | 36153 | inactive |
| CG42749 | DRSC18091 | 38590 | 49130 | inactive |
| CG42749 | DRSC18092 | 40910 | 41840 | inactive |
| CG4502 | DRSC02755 | 1.07e5 | 52963 | inactive |
| Chmp1 (Charged multivesicular body protein 1) | DRSC10401 | 23763 | 30267 | inactive |
| CG13461 | DRSC10008 | 81687 | 68060 | inactive |
| CG31406 | DRSC12777 | 1.02e5 | 63927 | inactive |
| CG13659 | DRSC14660 | 57700 | 68590 | inactive |
